Literature values, collected in patent US20060110767A1, “Genotyping assay to predict cytochrome P4503A5 exression” (priority 2001, published 2006).

Protein sequences, listed by entry. Tags and fused reporters are not part of them.
UniProt P08684, whole entry: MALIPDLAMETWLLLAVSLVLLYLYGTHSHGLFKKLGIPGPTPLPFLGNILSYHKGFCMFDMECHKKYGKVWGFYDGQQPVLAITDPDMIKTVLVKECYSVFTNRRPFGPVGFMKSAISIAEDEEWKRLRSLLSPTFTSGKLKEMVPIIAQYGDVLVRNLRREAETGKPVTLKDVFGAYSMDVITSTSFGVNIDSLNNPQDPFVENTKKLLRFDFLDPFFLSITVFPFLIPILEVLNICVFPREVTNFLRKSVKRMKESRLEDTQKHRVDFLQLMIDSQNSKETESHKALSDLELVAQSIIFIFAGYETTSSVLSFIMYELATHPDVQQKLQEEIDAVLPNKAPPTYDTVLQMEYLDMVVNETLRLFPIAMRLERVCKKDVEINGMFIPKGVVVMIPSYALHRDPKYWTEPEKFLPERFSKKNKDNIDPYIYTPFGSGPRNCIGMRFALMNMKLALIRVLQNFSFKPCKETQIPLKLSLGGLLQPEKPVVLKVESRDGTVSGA
UniProt P24462, whole entry: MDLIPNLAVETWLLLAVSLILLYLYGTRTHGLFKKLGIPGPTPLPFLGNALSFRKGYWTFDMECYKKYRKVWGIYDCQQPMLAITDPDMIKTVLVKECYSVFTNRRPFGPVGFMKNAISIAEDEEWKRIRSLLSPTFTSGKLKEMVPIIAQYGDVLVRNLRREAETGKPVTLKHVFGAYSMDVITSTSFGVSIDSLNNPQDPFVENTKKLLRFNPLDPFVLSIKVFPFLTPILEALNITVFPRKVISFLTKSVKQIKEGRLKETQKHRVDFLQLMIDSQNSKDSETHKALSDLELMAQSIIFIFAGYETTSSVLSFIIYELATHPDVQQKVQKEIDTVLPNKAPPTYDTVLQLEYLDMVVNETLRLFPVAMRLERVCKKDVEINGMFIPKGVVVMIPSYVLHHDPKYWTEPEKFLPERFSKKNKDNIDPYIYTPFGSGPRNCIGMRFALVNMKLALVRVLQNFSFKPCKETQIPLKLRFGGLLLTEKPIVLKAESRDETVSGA

How the values were obtained:
[1] = target: CYP3A4 (Homo sapiens, UniProt P08684); parameters: key to the marks not given beside the values; conditions: cited from earlier work
[2] = target: CYP3A7 (Homo sapiens, UniProt P24462); parameters: key to the marks not given beside the values; conditions: cited from earlier work

COC(=O)C1=C(C)NC(C)=C(C(=O)OC)C1c1ccccc1[N+](=O)[O-] [Nifedipine]
CYP isoforms expressed in cells 3A4 [1]: +++
CYP isoforms expressed in cells 3A7 [2]: +++
